From article PMC7819943, “Rice protein-binding microarrays: a tool to detect cis-acting elements near promoter regions in rice” come the findings set out here.

This is one part of the list.

In the experiment the target is T1, OsSMF1 (Oryza sativa, UniProt Q6ZLB0 1-436).
T1 sequence: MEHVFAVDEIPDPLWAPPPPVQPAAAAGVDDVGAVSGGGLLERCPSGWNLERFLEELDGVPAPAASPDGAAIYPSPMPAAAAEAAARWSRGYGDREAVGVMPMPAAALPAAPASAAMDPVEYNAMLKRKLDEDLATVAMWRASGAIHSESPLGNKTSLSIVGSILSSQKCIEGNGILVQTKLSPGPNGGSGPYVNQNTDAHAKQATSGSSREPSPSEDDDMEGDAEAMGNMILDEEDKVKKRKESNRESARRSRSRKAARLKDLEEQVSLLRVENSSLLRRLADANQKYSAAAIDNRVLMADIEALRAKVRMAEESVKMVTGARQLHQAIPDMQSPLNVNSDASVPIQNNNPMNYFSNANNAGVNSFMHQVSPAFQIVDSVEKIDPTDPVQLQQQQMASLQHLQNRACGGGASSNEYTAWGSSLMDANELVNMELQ
The experiment is described as follows: protein-binding microarray (RPBM); PBS, 2% BSA, 51.3 ng/ul salmon testes DNA, 50 uM zinc acetate, 200 nM TF, 25 C, 1 h; high values mean tight binding. The following applies: protein: recombinant; tags: N-terminal polyhistidine and DsRed monomer fusion (pET32a); chain copies: 2; label: CyDye5-dUTP incorporated in the synthesized complementary strand; 3' TTTTT single-stranded linker to array surface; dsDNA, one strand shown. The gist of the method:
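Transcription factors were made in E. coli BL21-CodonPlus as N-terminal fusions to a polyhistidine tag and DsRed, then purified on Ni–NTA. After primer extension with Cy5-dUTP and blocking with 2% BSA, a custom Agilent array was exposed for 1 h at 25 °C to 200 nM protein in PBS, 2% BSA, salmon testes DNA and 50 µM zinc acetate. Washed arrays were scanned on an Axon 4000B, and the binding signal is per-feature fluorescence intensity in arbitrary units.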
Consider “TAGGTGGCAAGATCTATGTCATGATATTAAGTTTTGAGGGCGGAGTCACCTAGTGCAG”, for which the binding signal was 3690 fluorescence intensity (a.u.). The figure for “ATTATGAGCCATGATTCTCTCATCATGCAATGTCCCAGCACGGAGTCACCTAGTGCAG” is 22100 fluorescence intensity (a.u.). The figure for “CATGGGAGCACCGGATCGCGTCTCACGTCAACGTGTCGCGCGGAGTCACCTAGTGCAG” is 3580 fluorescence intensity (a.u.); for “ATAATTTTCCTCTGGAGCAGCTATATATATGAGACTCTACCGGAGTCACCTAGTGCAG” it is 24900 fluorescence intensity (a.u.); for “TATGAACACATATGTAGCATACGCTTAAATAGACGAAGACCGGAGTCACCTAGTGCAG” it is 40500 fluorescence intensity (a.u.). The result for “TCGAAGAAGCCCTTTATTTCTCTTTTCGATACTCACACAACGGAGTCACCTAGTGCAG” reads 3260 fluorescence intensity (a.u.); that for “CAGGACCTGACGCAGTCCTCCTCCTTCTTGCCGAGGGTTCCGGAGTCACCTAGTGCAG”, 4520 fluorescence intensity (a.u.). With “CAGCCATATGGAGCACGATGTGCAAATGTAGGACCTGTGCCGGAGTCACCTAGTGCAG”, the binding signal is 4090 fluorescence intensity (a.u.). The result for “CCCATCGCCAGAATGTTTGGATGATGTTATCTAGCAACTGCGGAGTCACCTAGTGCAG” reads 3520 fluorescence intensity (a.u.).

“AGCCGGCACGCATGCGTATGTGCACGTAAGTGCTTCGTTCCGGAGTCACCTAGTGCAG”: the binding signal is 3180 fluorescence intensity (a.u.). The figure for “TGAACTTGTGATTGGATCAGGTGTTGACCATGGGAGATTACGGAGTCACCTAGTGCAG” is 14300 fluorescence intensity (a.u.); for “CAACCATGGCGTCATCCTCTTCCTCCTCCTCCTCCTCCTCCGGAGTCACCTAGTGCAG” it is 5800 fluorescence intensity (a.u.). The figure for “CCTCCCCTTCCGTCTCTCCGCGCTCCAGCTCCACGCCAATCGGAGTCACCTAGTGCAG” is 4310 fluorescence intensity (a.u.).

For the sequence “CCAGTTGAGTTTTGCCTGTGGAGTGGAGCTGAAGCCCCGCCGGAGTCACCTAGTGCAG”, the binding signal was 16300 fluorescence intensity (a.u.). For the sequence “TGTTGTTGGTTCCCTCTCCACGGCGACCTCATTGCCTCTCCGGAGTCACCTAGTGCAG”, the binding signal is 3320 fluorescence intensity (a.u.).

For the sequence “ACCCGATCCATTGCACATTTGCACTCAACTGTTTCGCCCTCGGAGTCACCTAGTGCAG”, the binding signal was 3530 fluorescence intensity (a.u.). The result for “CACCCGCGTGTATGCCAGCTAGGCTTGGCTCCGACGTGGACGGAGTCACCTAGTGCAG” reads 4790 fluorescence intensity (a.u.). The figure for “ATTGAGCTACCAGCAGCCTGCAGGCAGGCAGGCAGGTAGGCGGAGTCACCTAGTGCAG” is 28200 fluorescence intensity (a.u.).

As to “AAAGGCACAGCAGGATGAAGATCTTGAAATGTTTCTTTGGCGGAGTCACCTAGTGCAG”, the binding signal is 6510 fluorescence intensity (a.u.).

As to “GAGTGAGTAGCTCTTTGACGCGGAAGACGTGTAAAAGTATCGGAGTCACCTAGTGCAG”, the binding signal is 5060 fluorescence intensity (a.u.).

Turning to “CGGTCCTCCTCGTCCGTGTTGTCGAGGCGGGGTAGAGGGGCGGAGTCACCTAGTGCAG”, the binding signal was 3250 fluorescence intensity (a.u.). Consider “TGTCGGTCGGGCGGCCGCGCGCGCGGCCACGTACACGGCGCGGAGTCACCTAGTGCAG”, for which the binding signal is 4770 fluorescence intensity (a.u.). As for “CCTGACCCACATGCCATTGACTCATGTGGGTCCTACATGTCGGAGTCACCTAGTGCAG”, the binding signal was 5910 fluorescence intensity (a.u.).

On to “CCTCCACTGGCGCATCCGACGTGGTCTCGGCAAAGTTCGACGGAGTCACCTAGTGCAG”, for which the binding signal is 6920 fluorescence intensity (a.u.).

Consider “GACTCAGCACAAACTGACTAGAGTCAAAGCGCCACGTCGTCGGAGTCACCTAGTGCAG”, for which the binding signal is 7590 fluorescence intensity (a.u.). For the sequence “ACCCTATGAAAACTTCGTTTCGAGGCTGCACGTTTGCAATCGGAGTCACCTAGTGCAG”, the binding signal was 3500 fluorescence intensity (a.u.).

As for “AATCACAGCACCATCGATTTGATGCCAACTCACATGTTACCGGAGTCACCTAGTGCAG”, the binding signal was 5480 fluorescence intensity (a.u.).

As for “CCGAGATAATTACGTTGACTGACACATGGGGTCCAATCCACGGAGTCACCTAGTGCAG”, the binding signal is 3640 fluorescence intensity (a.u.).

For “ATCTAAATCTTTTGGCCACGCAAGAGGCTGGCGTGGCCAACGGAGTCACCTAGTGCAG”, the binding signal is 4640 fluorescence intensity (a.u.). The result for “CGCCATGGGCGAGGCGGTGAAGGGGCCAGTGGTGGTGACGCGGAGTCACCTAGTGCAG” reads 4250 fluorescence intensity (a.u.); that for “CGGGGTGGGTGTGGAAGACTGCACACGTTGTACTACAACCCGGAGTCACCTAGTGCAG”, 4030 fluorescence intensity (a.u.). Consider “GATTCGTCTCGCGATTTCCATTCAAACTGTGCAATTAGTTCGGAGTCACCTAGTGCAG”, for which the binding signal is 28000 fluorescence intensity (a.u.). The figure for “TAACATCTCTTCGCTGCCATTAGAGAAAATACACGAATGACGGAGTCACCTAGTGCAG” is 4350 fluorescence intensity (a.u.); for “AAGAAAGTTTCATTTTCTAATAATGTATCCTAATTCGAGACGGAGTCACCTAGTGCAG” it is 22700 fluorescence intensity (a.u.); for “GTGATCGGCCGCATTGCTTGCGTGGTGGCACACCGTCAGCCGGAGTCACCTAGTGCAG” it is 6710 fluorescence intensity (a.u.).

Consider “CAGGCTAGCCCAAAGCTCTACACGTCCTAACTCCAAGCCACGGAGTCACCTAGTGCAG”, for which the binding signal was 3900 fluorescence intensity (a.u.). The figure for “TTTGAGCCTAATTAATTCATGATTAGCCATAAGTACTGCTCGGAGTCACCTAGTGCAG” is 20000 fluorescence intensity (a.u.). The figure for “ACCACATCCACTGCCGCGCCACGCCTCTCGGCCGCCACACCGGAGTCACCTAGTGCAG” is 3770 fluorescence intensity (a.u.).

“GTGCATAGGGTTTCCGACTGGAATTGGGTTGGAGGGGCTTCGGAGTCACCTAGTGCAG”: the binding signal is 3160 fluorescence intensity (a.u.). Turning to “TTCTCTTCCAAAGGAAATGTATAAATCCACCATTAACTTTCGGAGTCACCTAGTGCAG”, the binding signal is 19900 fluorescence intensity (a.u.). The figure for “ACACCGAGAGCAGAGAGAAAATTCACCGGCACGCCGGAGACGGAGTCACCTAGTGCAG” is 33400 fluorescence intensity (a.u.); for “AAGGAAAGCAAATTTGTGACATTGAGCTAGGTGGTTCAGACGGAGTCACCTAGTGCAG” it is 3240 fluorescence intensity (a.u.).
